# Measured values from the supplement of paper PMC6411743.
# ± gives the standard deviation of the averaged measurements. This is one part of the list.
# Target: T1, TMEM43 (UniProt Q9BTV4)
# T1 sequence (whole entry): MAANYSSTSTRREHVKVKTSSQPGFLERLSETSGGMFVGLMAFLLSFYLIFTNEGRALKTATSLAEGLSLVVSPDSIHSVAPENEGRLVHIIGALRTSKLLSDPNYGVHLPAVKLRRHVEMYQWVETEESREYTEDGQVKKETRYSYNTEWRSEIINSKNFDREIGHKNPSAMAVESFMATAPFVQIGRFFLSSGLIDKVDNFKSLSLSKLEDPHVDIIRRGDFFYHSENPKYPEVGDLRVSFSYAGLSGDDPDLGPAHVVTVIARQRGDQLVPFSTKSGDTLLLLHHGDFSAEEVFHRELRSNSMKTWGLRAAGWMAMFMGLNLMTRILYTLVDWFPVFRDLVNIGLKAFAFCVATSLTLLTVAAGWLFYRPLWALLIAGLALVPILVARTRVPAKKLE
# Assay: NP40-soluble protein abundance relative to vehicle (solubility fold change) (ratio); higher = more soluble protein in presence of GTP
# Protocol: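 Solubility proteome profiling in Jurkat crude lysate. Lysate was treated with Mg-GTP (0.1-10 mM) for 10 min at room temperature and 3 min at 37 °C, then solubilised with 0.8% NP40 and benzonase, followed by ultracentrifugation. Proteins were quantified by TMT10 LC-MS/MS; the value is the NP40-soluble abundance relative to the NP40-processed vehicle, from 3 independent experiments.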
smiles,measurement,setting,value
Nc1nc2c(ncn2[C@@H]2O[C@H](COP(=O)(O)OP(=O)(O)OP(=O)(O)O)[C@@H](O)[C@H]2O)c(=O)[nH]1 [guanosine triphosphate],NP40-soluble protein abundance,concentration: 0.1mM,1.09 ± 0.18
same,NP40-soluble protein abundance,concentration: 0.5mM,1.14 ± 0.18
same,NP40-soluble protein abundance,concentration: 1mM,0.975 ± 0.15
same,NP40-soluble protein abundance,concentration: 2mM,1.05 ± 0.23
same,NP40-soluble protein abundance,concentration: 4mM,0.985 ± 0.19
same,NP40-soluble protein abundance,concentration: 6mM,1.01 ± 0.16
same,NP40-soluble protein abundance,concentration: 8mM,0.929 ± 0.11
same,NP40-soluble protein abundance,concentration: 10mM,0.937 ± 0.15
